Experimental data from publication PMC4264749, “Phlebotomy Treatment for Elimination of Perfluoroalkyl Acids in a Highly Exposed Family: A Retrospective Case-Series” (PLoS ONE, 2014).
The source gives many values for each of these; only a part stands here.

Assay: Serum PFAA concentrations in family members during intermittent phlebotomy (HPLC-MS/MS)
Format: in vivo, human
From the text: After receiving informed consent, intermittent phlebotomy was undertaken at an overall rate (Table 2) that was equal to or less than the maximum rate of what is done for routine blood donations at the Canadian Blood Services: ∼500 ccs of whole blood every 56 days. Frequency and timing of blood removal was not consistent between family members because of their personal availability, success at each time of venesection, and compliance of each participant. […] Mineral supplementation was discussed and was taken by each participant.
All serum samples were submitted to ALS Laboratories (Edmonton, AB) for quantitative analysis of PFAAs (see Supporting Information, S1 Table). Samples were extracted by solid phase extraction and concentrations of PFHxS, PFOS, and PFOA were determined using high performance liquid chromatography/tandem mass spectrometry. Formic acid (0.1 M) along with a mixture of isotopically labeled PFAAs (Wellington Laboratories, Guelph, Ontario) were added to 1.0 mL of serum. The mixture was vortexed, sonicated, and subjected to solid phase extraction. The extract was concentrated to 100 uL and an instrument performance internal standard was added along with 200 uL of 90% 20 mM aqueous acetic acid/10% methanol. Procedural blanks were run with each set of samples, and method limits of quantification (LOQ) were 0.5 ng/mL for each analyte. For the few PFAA levels that fell below this LOQ (shown as hollow circles in Figs. 1–3), LOQ/√2 (i.e. 0.35 ng/mL) was substituted for purposes of data analysis. PFHxS, PFOS, and PFOA levels in all participating family members were >LOQ throughout the intervention except for 3 PFOS measurements out of 16 total measurements in the 3rd child and one PFOA measurement out of 9 total measurements in the […]. Written informed consent was given by participants (or parents in the case of children) for their clinical records to be used in this study.

[1] = 3rd Child, sampling date 2009.10.11
[2] = 3rd Child, sampling date 2009.12.16
[3] = 3rd Child, sampling date 2009.6.1
[4] = 3rd Child, sampling date 2009.7.4
[5] = 3rd Child, sampling date 2009.8.7
[6] = 3rd Child, sampling date 2009.9.7
[7] = 3rd Child, sampling date 2010.1.24
[8] = 3rd Child, sampling date 2013.10.27
[9] = 3rd Child, sampling date 2013.5.5
[10] = 3rd Child, sampling date 2013.7.25
[11] = 3rd Child, sampling date 2013.9.8
[12] = 4th Child, sampling date 2009.10.25
[13] = 4th Child, sampling date 2009.10.4
[14] = 4th Child, sampling date 2009.12.22
[15] = 4th Child, sampling date 2009.6.2
[16] = 4th Child, sampling date 2009.6.26
[17] = 4th Child, sampling date 2009.8.7
[18] = 4th Child, sampling date 2009.9.2
[19] = 4th Child, sampling date 2010.1.24
[20] = 4th Child, sampling date 2010.4.29
[21] = 4th Child, sampling date 2011.10.2
[22] = 4th Child, sampling date 2011.11.29
[23] = 4th Child, sampling date 2011.5.23
[24] = 4th Child, sampling date 2011.6.18
[25] = 4th Child, sampling date 2012.1.8
[26] = 4th Child, sampling date 2012.12.23
[27] = 4th Child, sampling date 2012.3.5
[28] = 4th Child, sampling date 2012.5.22
[29] = 4th Child, sampling date 2013.10.27
[30] = 4th Child, sampling date 2013.3.30
[31] = 4th Child, sampling date 2013.5.25
[32] = 4th Child, sampling date 2013.7.23
[33] = 4th Child, sampling date 2013.9.8

Compound	Serum concentration [12] [ng/mL]	Serum concentration [13] [ng/mL]	Serum concentration [14] [ng/mL]	Serum concentration [15] [ng/mL]	Serum concentration [16] [ng/mL]	Serum concentration [17] [ng/mL]	Serum concentration [18] [ng/mL]	Serum concentration [20] [ng/mL]	Serum concentration [21] [ng/mL]	Serum concentration [22] [ng/mL]	Serum concentration [23] [ng/mL]	Serum concentration [24] [ng/mL]	Serum concentration [25] [ng/mL]	Serum concentration [26] [ng/mL]	Serum concentration [27] [ng/mL]	Serum concentration [28] [ng/mL]	Serum concentration [29] [ng/mL]	Serum concentration [30] [ng/mL]	Serum concentration [31] [ng/mL]	Serum concentration [32] [ng/mL]	other results
O=S(=O)(O)C(F)(F)C(F)(F)C(F)(F)C(F)(F)C(F)(F)C(F)(F)F [PFHxS, Perfluorohexane sulfonate]	70.5	69.6	46.5	167	156	127	101	69.6	70.2	23.3	74.4	89	42	92.2	45.6	47.7	29.9	47.8	33.3	26.9	Serum concentration [1]: 207.0 ng/mL; Serum concentration [2]: 65.1 ng/mL; Serum concentration [3]: 293.0 ng/mL; Serum concentration [4]: 271.0 ng/mL; Serum concentration [5]: 224.0 ng/mL; Serum concentration [6]: 215.0 ng/mL; Serum concentration [7]: 92.1 ng/mL; Serum concentration [8]: 48.3 ng/mL; Serum concentration (3rd Child, sampling date 2013.2.5): 66.6 ng/mL; Serum concentration (3rd Child, sampling date 2013.3.30): 67.4 ng/mL; Serum concentration [9]: 44.1 ng/mL; Serum concentration [10]: 34.8 ng/mL; Serum concentration [11]: 60.6 ng/mL; Serum concentration [19]: 30.6 ng/mL; Serum concentration [33]: 31.2 ng/mL
O=C(O)C(F)(F)C(F)(F)C(F)(F)C(F)(F)C(F)(F)C(F)(F)C(F)(F)F [PFOA, perfluorooctanoic acid]	2.5	4.1	4.0	6.8	6.0	4.7	5.6	3.5	2.2	1.6	2.4	2.2	2.0	1.5	2.4	2.3	1.3	1.7	1.3	1.1	Serum concentration [1]: 6.1 ng/mL; Serum concentration [2]: 3.5 ng/mL; Serum concentration [3]: 8.2 ng/mL; Serum concentration [4]: 7.7 ng/mL; Serum concentration [5]: 6.9 ng/mL; Serum concentration [6]: 7.8 ng/mL; Serum concentration [7]: 5.1 ng/mL; Serum concentration [8]: 1.8 ng/mL; Serum concentration [9]: 1.7 ng/mL; Serum concentration [10]: 1.7 ng/mL; Serum concentration [11]: 2.0 ng/mL; Serum concentration [19]: 2.0 ng/mL; Serum concentration [33]: 1.3 ng/mL
O=S(=O)(O)C(F)(F)C(F)(F)C(F)(F)C(F)(F)C(F)(F)C(F)(F)C(F)(F)C(F)(F)F [PFOS, perfluoroctane sulfonate]	29.9	45.3	37.5	62.4	42.3	52.5	54.0	40.9	1.2	4.0	4.9	4.0	9.2	3.7	11.3	11.7	5.0	3.1	5.6	4.4	Serum concentration [33]: 4.7 ng/mL
